Measured values taken from patent US20040241225A1, “Modulation of vitamin storage” (priority 2001, published 2004).
At least one read-out could not be matched to a standard name with certainty.

Test: Liver TP level 24 h after a single dose of TP or tocopheryl acetate, quantitated by ESMS
Details: rat, oral, conclusion from table 3

α-tocopheryl phosphate [TP]
bioavailability compared with tocopheryl acetate: higher bioavailability than tocopheryl acetate
